Reference: US9949964B2, “Tesofensine compositions” (Saniona A/S, priority 2016, dated 2018)
At least one read-out could not be matched to a standard name with certainty.

Assay: Dissolution tests / dissolution profile
Type: physicochemical
Description: The active ingredient dissolves from the coated tablets within 30 minutes. FIGS. 1, 2 and 3 show dissolution profiles for tesofensine compositions B and C with a dose strength of 0.25 mg, 0.5 mg and 1.0 mg.

Compound: CCOC[C@H]1C2CCC(C[C@@H]1c1ccc(Cl)c(Cl)c1)N2C (stereo partly drawn) [tesofensine, (3S,4R)-3-(3,4-dichlorophenyl)-4-(ethoxymethyl)-8-methyl-8-azabicyclo[3.2.1]octane]
- Permeability: highly permeable
